Holding throughout (experiment): co-IP; 293T cells transiently transfected with expression plasmids for 48 h; lysates in RIPA buffer; IP with the indicated antibodies (anti-Flag, anti-HA), western blot
For orientation: Immunoblotting shows a protein as a band on a membrane.

The chains behind the UniProt entries cited, without tags or fusion partners.
UniProt Q9HCE7: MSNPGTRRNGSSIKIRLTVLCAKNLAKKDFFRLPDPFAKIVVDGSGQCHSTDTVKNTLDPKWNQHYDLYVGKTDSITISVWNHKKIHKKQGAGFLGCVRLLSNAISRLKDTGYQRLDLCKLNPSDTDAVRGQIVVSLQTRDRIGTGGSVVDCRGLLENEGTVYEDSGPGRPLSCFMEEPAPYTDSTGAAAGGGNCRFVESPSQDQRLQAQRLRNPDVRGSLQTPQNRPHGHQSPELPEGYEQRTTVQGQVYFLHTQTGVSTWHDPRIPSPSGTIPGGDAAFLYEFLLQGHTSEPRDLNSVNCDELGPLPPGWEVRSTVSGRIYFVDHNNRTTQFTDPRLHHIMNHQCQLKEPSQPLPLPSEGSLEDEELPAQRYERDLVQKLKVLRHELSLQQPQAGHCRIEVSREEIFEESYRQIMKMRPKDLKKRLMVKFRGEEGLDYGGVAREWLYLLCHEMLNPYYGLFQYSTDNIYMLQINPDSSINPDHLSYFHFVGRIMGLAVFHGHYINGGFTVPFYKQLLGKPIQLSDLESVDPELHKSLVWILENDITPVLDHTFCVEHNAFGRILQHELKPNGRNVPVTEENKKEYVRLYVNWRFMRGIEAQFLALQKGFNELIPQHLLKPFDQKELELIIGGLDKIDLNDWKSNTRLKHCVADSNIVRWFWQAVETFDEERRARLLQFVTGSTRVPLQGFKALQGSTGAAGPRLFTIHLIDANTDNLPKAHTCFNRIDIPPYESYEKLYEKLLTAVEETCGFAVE

Assay [1] has as its target T1, Flag-Smad6-NLS (nuclear-forced full-length human Smad6) (human) (UniProt O43541).
T1 sequence: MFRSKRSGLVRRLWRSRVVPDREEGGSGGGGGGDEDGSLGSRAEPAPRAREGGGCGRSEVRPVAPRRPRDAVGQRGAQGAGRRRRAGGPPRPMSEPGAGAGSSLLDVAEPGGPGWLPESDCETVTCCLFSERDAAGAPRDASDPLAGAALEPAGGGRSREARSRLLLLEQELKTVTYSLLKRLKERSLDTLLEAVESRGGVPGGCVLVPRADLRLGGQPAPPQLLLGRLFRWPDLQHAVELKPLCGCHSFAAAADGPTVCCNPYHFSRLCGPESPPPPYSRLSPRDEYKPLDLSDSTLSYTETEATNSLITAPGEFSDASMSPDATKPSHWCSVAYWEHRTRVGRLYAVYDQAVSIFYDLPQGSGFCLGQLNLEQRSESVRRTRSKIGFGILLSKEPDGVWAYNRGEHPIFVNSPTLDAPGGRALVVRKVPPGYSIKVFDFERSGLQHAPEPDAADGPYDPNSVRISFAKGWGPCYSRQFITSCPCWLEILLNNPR

Assay [2] has as its target T2, HA-PIAS3 (full-length human PIAS3) (human) (UniProt Q9Y6X2).
T2 sequence: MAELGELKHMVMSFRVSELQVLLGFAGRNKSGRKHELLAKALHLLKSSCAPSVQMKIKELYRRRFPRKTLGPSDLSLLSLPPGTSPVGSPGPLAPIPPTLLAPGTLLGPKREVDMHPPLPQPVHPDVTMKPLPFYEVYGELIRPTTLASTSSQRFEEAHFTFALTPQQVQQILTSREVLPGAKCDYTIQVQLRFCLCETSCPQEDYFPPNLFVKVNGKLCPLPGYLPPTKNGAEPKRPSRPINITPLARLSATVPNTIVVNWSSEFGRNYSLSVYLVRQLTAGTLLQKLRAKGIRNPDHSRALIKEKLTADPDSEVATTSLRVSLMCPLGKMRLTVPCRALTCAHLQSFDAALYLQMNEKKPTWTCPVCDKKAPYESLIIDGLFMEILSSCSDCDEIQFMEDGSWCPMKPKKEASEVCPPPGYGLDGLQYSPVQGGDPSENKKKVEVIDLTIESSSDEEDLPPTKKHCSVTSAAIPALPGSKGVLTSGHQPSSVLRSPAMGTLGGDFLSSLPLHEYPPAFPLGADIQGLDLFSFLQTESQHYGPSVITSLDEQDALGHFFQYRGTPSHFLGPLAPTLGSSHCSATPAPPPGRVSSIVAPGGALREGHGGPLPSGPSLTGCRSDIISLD

Assay [3] addresses T3, His-MH2-NLS (Smad6 MH2 domain construct) (human) (UniProt O43541).
T3 sequence: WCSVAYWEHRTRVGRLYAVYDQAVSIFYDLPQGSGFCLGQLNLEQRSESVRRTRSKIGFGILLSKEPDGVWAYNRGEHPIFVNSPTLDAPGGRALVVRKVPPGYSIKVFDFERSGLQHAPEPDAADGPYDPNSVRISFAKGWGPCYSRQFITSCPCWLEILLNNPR

The target in assay [4] is T1, Flag-Smad6-NLS (nuclear-forced full-length human Smad6) (human). This is another data set of the same source.

The source of these data is paper PMC6021382.

Where two headings read alike, the source gives them in different places. These are yes or no findings as the source states them, for the method shown. Binding seen in cells or lysates may run through a third protein. Some results given as binding are weak or reduced against the parent protein; the word gives no strength. Sequences can lack the tags named with a protein.

Regarding “His-tagged Smurf1 (human, full length) (from UniProt Q9HCE7 1-757) (enzyme)”, in assay [1], the binding result was “binds”.

B1: His-MH2-NLS (Smad6 MH2 domain construct) (domain or fragment, UniProt O43541 331-496)
chain: WCSVAYWEHRTRVGRLYAVYDQAVSIFYDLPQGSGFCLGQLNLEQRSESVRRTRSKIGFGILLSKEPDGVWAYNRGEHPIFVNSPTLDAPGGRALVVRKVPPGYSIKVFDFERSGLQHAPEPDAADGPYDPNSVRISFAKGWGPCYSRQFITSCPCWLEILLNNPR
For B1, the binding entry in assay [2] is listed as “binds”.

B2: HA-Ring-NLS (PIAS3 Ring domain construct) (domain or fragment, UniProt Q9Y6X2 303-380)
chain: LIKEKLTADPDSEVATTSLRVSLMCPLGKMRLTVPCRALTCAHLQSFDAALYLQMNEKKPTWTCPVCDKKAPYESLII
For the molecule B2, the binding entry in assay [3] and in assay [4] was “binds” each time.

B3: Flag-tagged nuclear Smad6 with Linker domain deletion (dLinker, residues 1-181 ~ 332-496) (domain or fragment, UniProt O43541)
chain: MFRSKRSGLVRRLWRSRVVPDREEGGSGGGGGGDEDGSLGSRAEPAPRAREGGGCGRSEVRPVAPRRPRDAVGQRGAQGAGRRRRAGGPPRPMSEPGAGAGSSLLDVAEPGGPGWLPESDCETVTCCLFSERDAAGAPRDASDPLAGAALEPAGGGRSREARSRLLLLEQELKTVTYSLLKCSVAYWEHRTRVGRLYAVYDQAVSIFYDLPQGSGFCLGQLNLEQRSESVRRTRSKIGFGILLSKEPDGVWAYNRGEHPIFVNSPTLDAPGGRALVVRKVPPGYSIKVFDFERSGLQHAPEPDAADGPYDPNSVRISFAKGWGPCYSRQFITSCPCWLEILLNNPR
In the case of B3, in assay [2], the binding result is “binds”.
